The list shows a part of the results.
Key:
Experiment in all cases: log2 fold change, soluble protein after heating vs DMSO (PISA); higher = thermal stabilisation; K562 cells, 10 uM, 30 min; active = over 0.2 and 3.5 SD of the protein, either way, in both replicates (recomputed)
[1] = compound: CN1CCN(CCOc2cc(OC3CCOCC3)c3c(Nc4c(Cl)ccc5c4OCO5)ncnc3c2)CC1 [saracatinib]
Summary of the method: (§1)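 Values are thermal stability changes relative to control samples and are taken from duplicates. They are stated as log2 fold changes. Before quantification by TMTpro 16plex LC-MS/MS with equalised channel sums, K562 cells at 2×10^6 cells/mL were treated with 10 μM compound for 30 min, heated in aliquots for 3 min across 48°C-58°C, pooled, extracted in PBS with 0.5% NP-40 at 4°C, and centrifuged at 21,000xg for 90 min to give the soluble supernatant.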

By UniProt entry, the sequences of proteins in these tests, tags left out. Where a name states a change or a piece, a line headed by the entry shows the natural chain unless it says otherwise.
UniProt Q9H4G0, whole entry, looked up: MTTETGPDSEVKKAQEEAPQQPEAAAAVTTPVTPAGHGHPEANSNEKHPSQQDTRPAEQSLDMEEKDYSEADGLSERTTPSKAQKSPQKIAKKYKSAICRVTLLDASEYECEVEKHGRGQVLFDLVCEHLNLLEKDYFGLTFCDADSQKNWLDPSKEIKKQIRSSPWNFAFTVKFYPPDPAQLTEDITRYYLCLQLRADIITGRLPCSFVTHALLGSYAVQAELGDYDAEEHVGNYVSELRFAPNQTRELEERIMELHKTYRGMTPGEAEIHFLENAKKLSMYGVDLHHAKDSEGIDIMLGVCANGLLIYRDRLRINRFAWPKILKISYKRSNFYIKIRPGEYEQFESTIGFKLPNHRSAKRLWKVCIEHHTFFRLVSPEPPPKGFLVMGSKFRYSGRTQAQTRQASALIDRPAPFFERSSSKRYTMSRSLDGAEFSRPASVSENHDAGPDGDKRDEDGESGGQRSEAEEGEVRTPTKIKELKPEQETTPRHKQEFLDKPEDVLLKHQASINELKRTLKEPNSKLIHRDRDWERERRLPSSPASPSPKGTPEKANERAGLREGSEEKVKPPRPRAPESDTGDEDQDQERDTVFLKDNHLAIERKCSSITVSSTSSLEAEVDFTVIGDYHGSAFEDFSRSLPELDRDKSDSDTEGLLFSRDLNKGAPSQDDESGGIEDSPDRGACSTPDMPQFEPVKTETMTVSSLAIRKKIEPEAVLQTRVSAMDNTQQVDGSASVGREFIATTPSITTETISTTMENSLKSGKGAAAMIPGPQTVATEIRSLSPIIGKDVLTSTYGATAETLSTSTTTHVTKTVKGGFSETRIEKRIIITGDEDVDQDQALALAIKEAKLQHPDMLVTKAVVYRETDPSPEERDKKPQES
UniProt O75822, whole entry, looked up: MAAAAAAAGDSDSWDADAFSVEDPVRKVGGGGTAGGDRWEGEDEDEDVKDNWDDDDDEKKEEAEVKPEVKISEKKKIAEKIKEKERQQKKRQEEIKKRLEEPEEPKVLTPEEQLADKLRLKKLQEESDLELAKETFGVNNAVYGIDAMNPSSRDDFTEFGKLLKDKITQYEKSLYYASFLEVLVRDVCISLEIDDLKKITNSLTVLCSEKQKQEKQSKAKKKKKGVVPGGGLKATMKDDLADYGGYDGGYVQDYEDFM
UniProt P0DPD8: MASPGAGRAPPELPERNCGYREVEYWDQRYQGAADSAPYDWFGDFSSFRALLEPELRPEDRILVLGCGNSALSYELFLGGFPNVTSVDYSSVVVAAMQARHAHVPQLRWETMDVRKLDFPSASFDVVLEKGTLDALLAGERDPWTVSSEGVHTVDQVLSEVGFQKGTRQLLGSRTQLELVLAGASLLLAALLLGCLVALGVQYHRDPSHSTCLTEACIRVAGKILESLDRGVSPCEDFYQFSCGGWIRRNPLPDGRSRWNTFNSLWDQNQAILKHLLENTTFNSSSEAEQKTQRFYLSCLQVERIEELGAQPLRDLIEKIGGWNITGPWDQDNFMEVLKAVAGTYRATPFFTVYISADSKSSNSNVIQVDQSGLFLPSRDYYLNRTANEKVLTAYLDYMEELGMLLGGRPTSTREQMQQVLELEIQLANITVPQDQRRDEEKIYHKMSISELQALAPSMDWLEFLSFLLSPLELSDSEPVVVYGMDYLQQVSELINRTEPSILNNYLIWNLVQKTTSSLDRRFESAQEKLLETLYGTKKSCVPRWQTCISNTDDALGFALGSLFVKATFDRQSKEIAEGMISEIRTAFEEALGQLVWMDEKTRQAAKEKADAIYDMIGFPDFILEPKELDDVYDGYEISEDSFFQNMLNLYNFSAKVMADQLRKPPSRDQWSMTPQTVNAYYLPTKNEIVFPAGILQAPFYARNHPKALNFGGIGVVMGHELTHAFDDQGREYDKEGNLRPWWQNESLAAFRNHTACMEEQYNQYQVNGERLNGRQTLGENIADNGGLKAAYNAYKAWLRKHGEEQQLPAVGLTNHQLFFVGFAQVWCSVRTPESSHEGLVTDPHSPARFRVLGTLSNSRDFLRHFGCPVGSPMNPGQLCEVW
UniProt P50402: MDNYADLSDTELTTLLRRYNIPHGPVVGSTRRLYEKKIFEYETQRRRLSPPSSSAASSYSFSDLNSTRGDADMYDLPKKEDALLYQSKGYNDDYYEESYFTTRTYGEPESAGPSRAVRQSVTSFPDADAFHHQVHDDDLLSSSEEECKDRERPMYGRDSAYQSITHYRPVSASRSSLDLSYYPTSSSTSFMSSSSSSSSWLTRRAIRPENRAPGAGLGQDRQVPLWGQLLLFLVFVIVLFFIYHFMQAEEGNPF
UniProt Q5NDL2: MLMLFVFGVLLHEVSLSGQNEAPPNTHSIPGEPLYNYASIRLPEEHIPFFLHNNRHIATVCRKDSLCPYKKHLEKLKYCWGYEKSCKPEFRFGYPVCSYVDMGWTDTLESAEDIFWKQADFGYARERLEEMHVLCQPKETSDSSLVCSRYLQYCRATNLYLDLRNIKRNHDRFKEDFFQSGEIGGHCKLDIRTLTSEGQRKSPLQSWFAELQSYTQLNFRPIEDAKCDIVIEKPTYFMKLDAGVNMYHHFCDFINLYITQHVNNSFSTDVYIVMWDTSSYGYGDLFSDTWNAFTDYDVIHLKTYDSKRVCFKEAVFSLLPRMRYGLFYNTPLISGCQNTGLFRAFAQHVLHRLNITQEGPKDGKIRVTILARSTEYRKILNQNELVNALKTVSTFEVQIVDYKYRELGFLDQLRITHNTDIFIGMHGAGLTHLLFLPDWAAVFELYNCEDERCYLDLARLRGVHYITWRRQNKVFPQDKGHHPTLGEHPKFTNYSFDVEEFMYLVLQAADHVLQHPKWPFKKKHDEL
UniProt O60573: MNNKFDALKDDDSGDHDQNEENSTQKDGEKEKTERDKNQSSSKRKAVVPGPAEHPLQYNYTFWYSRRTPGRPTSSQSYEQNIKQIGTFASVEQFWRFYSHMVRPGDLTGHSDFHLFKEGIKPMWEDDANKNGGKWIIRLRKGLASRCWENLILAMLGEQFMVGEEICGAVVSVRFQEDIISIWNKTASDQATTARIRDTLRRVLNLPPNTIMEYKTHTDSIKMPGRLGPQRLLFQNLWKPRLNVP
UniProt P24534: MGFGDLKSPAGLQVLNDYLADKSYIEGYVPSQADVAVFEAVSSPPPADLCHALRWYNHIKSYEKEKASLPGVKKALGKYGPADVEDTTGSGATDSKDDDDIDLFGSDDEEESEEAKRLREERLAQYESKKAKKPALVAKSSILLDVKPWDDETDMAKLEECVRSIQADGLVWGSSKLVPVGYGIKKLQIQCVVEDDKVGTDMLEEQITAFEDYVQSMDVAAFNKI
UniProt P32519: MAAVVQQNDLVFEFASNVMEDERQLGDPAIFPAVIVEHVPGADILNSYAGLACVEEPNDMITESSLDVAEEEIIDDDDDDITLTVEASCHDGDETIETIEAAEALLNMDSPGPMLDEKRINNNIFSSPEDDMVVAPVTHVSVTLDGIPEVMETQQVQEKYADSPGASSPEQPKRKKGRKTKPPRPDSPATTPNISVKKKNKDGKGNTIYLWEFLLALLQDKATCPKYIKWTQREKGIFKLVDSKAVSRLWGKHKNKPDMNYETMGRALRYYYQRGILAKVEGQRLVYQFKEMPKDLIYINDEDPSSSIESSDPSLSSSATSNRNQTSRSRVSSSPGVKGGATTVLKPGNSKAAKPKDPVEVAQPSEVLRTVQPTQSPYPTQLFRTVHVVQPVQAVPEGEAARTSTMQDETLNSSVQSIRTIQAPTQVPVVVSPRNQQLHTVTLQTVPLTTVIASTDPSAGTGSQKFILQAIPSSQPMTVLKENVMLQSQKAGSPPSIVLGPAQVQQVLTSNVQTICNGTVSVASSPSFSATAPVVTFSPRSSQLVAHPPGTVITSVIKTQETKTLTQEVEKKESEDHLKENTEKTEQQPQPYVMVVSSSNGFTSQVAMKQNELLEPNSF
UniProt Q8N6R0: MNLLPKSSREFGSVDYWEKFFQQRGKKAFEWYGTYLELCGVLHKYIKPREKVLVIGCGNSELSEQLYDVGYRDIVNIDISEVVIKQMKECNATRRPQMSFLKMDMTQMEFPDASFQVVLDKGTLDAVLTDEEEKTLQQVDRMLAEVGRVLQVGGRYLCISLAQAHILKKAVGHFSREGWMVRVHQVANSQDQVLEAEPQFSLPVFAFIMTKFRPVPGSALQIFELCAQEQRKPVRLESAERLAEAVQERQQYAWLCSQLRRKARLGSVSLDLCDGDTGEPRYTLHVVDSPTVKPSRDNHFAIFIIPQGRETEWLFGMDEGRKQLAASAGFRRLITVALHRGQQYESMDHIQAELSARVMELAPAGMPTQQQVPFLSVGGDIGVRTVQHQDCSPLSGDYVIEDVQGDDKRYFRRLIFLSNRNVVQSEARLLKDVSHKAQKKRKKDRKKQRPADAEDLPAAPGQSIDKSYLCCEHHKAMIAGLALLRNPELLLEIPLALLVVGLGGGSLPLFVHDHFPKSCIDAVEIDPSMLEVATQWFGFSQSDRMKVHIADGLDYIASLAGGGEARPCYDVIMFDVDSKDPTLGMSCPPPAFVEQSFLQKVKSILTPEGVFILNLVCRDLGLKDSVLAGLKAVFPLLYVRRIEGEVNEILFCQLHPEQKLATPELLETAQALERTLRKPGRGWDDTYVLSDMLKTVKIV
UniProt O75071: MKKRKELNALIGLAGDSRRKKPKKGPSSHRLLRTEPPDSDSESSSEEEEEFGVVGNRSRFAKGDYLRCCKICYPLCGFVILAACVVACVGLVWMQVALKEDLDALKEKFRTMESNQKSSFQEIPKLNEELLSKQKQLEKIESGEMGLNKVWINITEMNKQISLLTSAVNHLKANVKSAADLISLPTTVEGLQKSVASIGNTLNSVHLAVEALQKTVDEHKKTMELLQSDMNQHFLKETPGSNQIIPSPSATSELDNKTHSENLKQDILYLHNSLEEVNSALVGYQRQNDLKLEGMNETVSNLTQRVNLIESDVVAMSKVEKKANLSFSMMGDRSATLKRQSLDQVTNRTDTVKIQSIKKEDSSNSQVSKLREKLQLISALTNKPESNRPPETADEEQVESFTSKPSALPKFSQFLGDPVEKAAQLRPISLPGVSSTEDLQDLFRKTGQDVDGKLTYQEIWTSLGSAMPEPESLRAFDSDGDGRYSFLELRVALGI
UniProt P41091, whole entry, looked up: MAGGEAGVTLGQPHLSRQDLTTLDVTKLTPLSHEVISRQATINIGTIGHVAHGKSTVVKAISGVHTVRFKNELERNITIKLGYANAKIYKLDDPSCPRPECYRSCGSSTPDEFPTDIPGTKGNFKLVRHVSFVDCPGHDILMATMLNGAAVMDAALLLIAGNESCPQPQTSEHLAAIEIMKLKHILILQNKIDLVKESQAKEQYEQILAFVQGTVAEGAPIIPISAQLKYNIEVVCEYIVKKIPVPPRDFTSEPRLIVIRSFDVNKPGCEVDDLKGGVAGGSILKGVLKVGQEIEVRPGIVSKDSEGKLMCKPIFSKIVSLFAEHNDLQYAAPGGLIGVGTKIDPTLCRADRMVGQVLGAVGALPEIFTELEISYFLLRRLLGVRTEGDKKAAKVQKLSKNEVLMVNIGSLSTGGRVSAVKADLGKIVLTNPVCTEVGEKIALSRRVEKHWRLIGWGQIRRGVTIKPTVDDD

[2] = compound: CN1CC[C@H](c2c(O)cc(O)c3c(=O)cc(-c4ccccc4Cl)oc23)[C@H](O)C1 [alvocidib]
Summary of the method: as §1

[3] = compound: CN1CCc2c(c3ccccc3n2Cc2ccc(C(=O)NO)cc2)C1 [Tubastatin A]
Summary of the method: as §1

[4] = compound: CNC(=O)C1=CC=CC=C1NC2=NC(=NC=C2Cl)NC3=C(C=C(C=C3)N4CCOCC4)OC
Summary of the method: as §1

[5] = compound: CNC(=O)c1ccc(Nc2ncc(C(F)(F)F)c(NCc3nccnc3N(C)S(C)(=O)=O)n2)cc1 [defactinib]
Summary of the method: as §1

[6] = compound: CNCc1ccc(-c2[nH]c3cc(F)cc4c3c2CCNC4=O)cc1 [rucaparib]
Summary of the method: as §1

[7] = compound: CNc1nc(-c2ccc3c(N)n[nH]c3c2)cc(N2C[C@@H](C(=O)NC3CCCCC3)CC[C@H]2C)n1
Summary of the method: as §1

[8] = compound: COC(=O)N[C@@H](C)CNc1nccc(-c2cn(C(C)C)nc2-c2cc(Cl)cc(NS(C)(=O)=O)c2F)n1 [encorafenib]
Summary of the method: as §1

[9] = compound: COC(=O)[C@H](CCSC)NC(=O)C1=C(C=C(C=C1)NC[C@H](CS)N)C2=CC=CC=C2
Summary of the method: as §1

[10] = compound: COC1=CC=C(C=C1)CN2C=CC3=C2C=C(C=C3)C(=O)NO
Summary of the method: as §1

[11] = compound: CO[C@H]1C[C@@H]2CC[C@@H](C)[C@@](O)(O2)C(=O)C(=O)N2CCCC[C@H]2C(=O)O[C@H]([C@H](C)C[C@@H]2CC[C@H](n3cnnn3)[C@H](OC)C2)CC(=O)[C@H](C)/C=C(\C)[C@@H](O)[C@@H](OC)C(=O)[C@H](C)C[C@H](C)/C=C/C=C/C=C/1C [zotarolimus]
Summary of the method: as §1

[12] = compound: COc1cc(C(=O)O)ccc1NC(=O)[C@@H]1N[C@@H](CC(C)(C)C)[C@](C#N)(c2ccc(Cl)cc2F)[C@H]1c1cccc(Cl)c1F [idasanutlin]
Summary of the method: as §1

[13] = compound: COc1cc(Nc2ncc3c(n2)-c2ccc(Cl)cc2C(c2c(F)cccc2OC)=NC3)ccc1C(=O)O [alisertib]
Summary of the method: as §1

[14] = compound: COc1cc2nc(-c3cc(F)ccc3O)nc(N[C@@H]3CNC[C@H]3C(C)(C)O)c2cc1OC
Summary of the method: as §1

[15] = compound: COc1cc2ncnc(Nc3ccc(F)c(Cl)c3)c2cc1OCCCN1CCOCC1 [gefitinib]
Summary of the method: as §1

[16] = compound: COc1cccc2cc(-c3nc([C@H]4CC[C@H](C(=O)O)CC4)n4ncnc(N)c34)[nH]c12
Summary of the method: as §1

[17] = compound: CS(=O)(=O)CCNCc1ccc(-c2ccc3ncnc(Nc4ccc(OCc5cccc(F)c5)c(Cl)c4)c3c2)o1 [lapatinib]
Summary of the method: as §1

[18] = compound: CS(=O)(=O)N1CCN(Cc2cc3nc(-c4cccc5[nH]ncc45)nc(N4CCOCC4)c3s2)CC1 [pictilisib]
Summary of the method: as §1

[19] = compound: CN1CCN(c2nc(C3=C(c4c[nH]c5ccccc45)C(=O)NC3=O)c3ccccc3n2)CC1 [sotrastaurin]
Summary of the method: as §1

[20] = compound: CON(C)C(=O)N1N=C(c2cc(F)ccc2F)S[C@@]1(CCCN)c1ccccc1 [filanesib]
Summary of the method: as §1

Measured: log2 fold change

EPB41L1 (UniProt Q9H4G0)
inactive: [1] 0.066 | [2] 0.24 | [3] 0.01 | [4] -0.063 | [5] -0.069 | [6] -0.054 | [7] 0.056 | [8] 0.012 | [9] 0.041 | [10] -0.049 | [11] -0.085 | [12] 0.106 | [13] -0.122 | [14] 0.106 | [15] 0.034 | [16] 0.008 | [17] -0.003 | [18] -0.006

EIF3J (UniProt O75822)
inactive: [1] -0.042 | [19] -0.028 | [3] -0.005 | [4] 0.019 | [5] 0.019 | [6] -0.072 | [7] -0.037 | [8] -0.008 | [9] -0.029 | [10] -0.067 | [20] -0.086 | [11] 0.007 | [12] -0.042 | [13] -0.018 | [14] 0.079 | [15] -0.004 | [16] -0.057 | [17] -0.057 | [18] -0.04

EEF1AKMT4-ECE2 (UniProt P0DPD8)
inactive: [1] -0.25 | [19] -0.226 | [7] -0.179 | [10] 0.167 | [20] -0.152

EMD (UniProt P50402)
inactive: [1] 0.011 | [19] 0.063 | [3] -0.028 | [4] -0.046 | [5] -0.027 | [6] 0.008 | [7] -0.064 | [8] -0.056 | [9] 0.032 | [10] -0.049 | [20] -0.013 | [11] 0.007 | [12] 0.037 | [13] -0.08 | [14] -0.031 | [15] -0.053 | [16] 0.074 | [17] -0.025 | [18] 0.093

EOGT (UniProt Q5NDL2)
inactive: [1] -0.012 | [19] 0.052 | [3] 0.025 | [4] 0 | [5] 0.031 | [6] 0.014 | [7] -0.158 | [8] 0.042 | [9] -0.032 | [10] -0.026 | [20] 0.053 | [11] 0.013 | [12] 0.036 | [13] 0.028 | [14] 0.056 | [15] 0.008 | [16] -0.021 | [17] 0.068 | [18] 0.007

EIF4E2 (UniProt O60573)
inactive: [1] -0.229 | [19] -0.288 | [3] 0.07 | [4] -0.026 | [5] -0.001 | [6] 0.126 | [7] 0.008 | [8] -0.013 | [9] -0.013 | [10] -0.062 | [20] -0.089 | [11] 0.058 | [12] 0.024 | [13] 0.059 | [14] -0.043 | [15] 0.043 | [16] -0.251 | [17] 0.033

EED, A0A5F9ZI63
inactive: [1] 0.008 | [19] -0.065 | [3] -0.041 | [4] -0.057 | [5] -0.04 | [6] 0.125 | [7] -0.052 | [8] 0.025 | [9] -0.05 | [10] 0.008 | [20] 0.115 | [11] -0.01 | [12] 0.08 | [13] -0.097 | [14] 0.032 | [15] 0.006 | [16] 0.018 | [17] 0.091 | [18] -0.163

EFL1 (UniProt Q7Z2Z2)
inactive: [1] -0.036 | [19] -0.004 | [3] -0.007 | [4] -0.014 | [5] -0.022 | [6] 0.015 | [7] 0.019 | [8] 0.033 | [9] -0.014 | [10] -0.021 | [20] -0.069 | [11] 0.022 | [12] -0.071 | [13] -0.013 | [14] 0.042 | [15] 0.019 | [16] 0.033 | [17] -0.034 | [18] -0.016

EIF3J isoform 2 (UniProt O75822)
inactive: [1] 0.035 | [19] 0.075 | [3] -0.082 | [4] -0.021 | [5] -0.085 | [7] -0.04 | [9] -0.008 | [10] -0.099 | [20] 0.013 | [12] 0.107 | [13] -0.074 | [14] 0.051 | [15] 0.047 | [16] 0.02 | [17] -0.116

EEF1B2 (UniProt P24534)
inactive: [1] -0.091 | [19] -0.061 | [3] 0.017 | [4] 0.06 | [5] -0.064 | [6] 0.041 | [7] -0.013 | [8] 0.07 | [9] -0.046 | [10] 0.033 | [20] 0.031 | [11] 0.035 | [12] 0.007 | [13] 0.023 | [14] 0.03 | [15] 0.024 | [16] -0.061 | [17] -0.029 | [18] 0.014

ELF1 (UniProt P32519)
inactive: [1] 0.02 | [19] -0.027 | [3] 0.075 | [4] 0.013 | [6] -0.301 | [7] -0.03 | [8] 0.018 | [10] 0.001 | [20] 0.028 | [11] -0.019 | [12] 0.089 | [14] -0.297 | [15] 0.01 | [17] -0.12

EEF1AKNMT (UniProt Q8N6R0)
inactive: [1] -0.063 | [19] -0.174 | [3] -0.004 | [4] 0.063 | [5] -0.068 | [6] 0.115 | [7] 0.059 | [8] 0.095 | [9] -0.182 | [10] -0.256 | [20] -0.052 | [11] 0.096 | [12] 0.013 | [13] -0.035 | [14] 0.037 | [15] 0.065 | [16] -0.037 | [17] -0.014 | [18] 0

EFCAB14 (UniProt O75071)
inactive: [1] -0.164 | [19] 0.083 | [3] -0.029 | [4] -0.03 | [5] 0.093 | [6] -0.059 | [7] 0.031 | [8] 0.044 | [9] -0.086 | [10] 0.139 | [20] -0.018 | [11] 0.147 | [12] 0.027 | [13] 0.043 | [14] -0.014 | [15] 0.04 | [16] -0.04 | [17] 0.021 | [18] 0.06

EHBP1L1 (UniProt Q8N3D4)
inactive: [1] -0.065 | [19] -0.082 | [3] 0.098 | [4] -0.002 | [5] -0.089 | [6] 0.1 | [7] -0.008 | [8] 0.127 | [9] -0.017 | [10] 0.054 | [20] 0.147 | [11] 0.065 | [12] -0.021 | [13] -0.098 | [14] 0.119 | [15] -0.009 | [16] -0.026 | [17] 0.03 | [18] 0.217

EIF2S3 (UniProt P41091)
inactive: [1] -0.016 | [19] 0 | [3] -0.006 | [4] -0.02 | [5] 0.114 | [6] 0.124 | [7] 0.033 | [8] 0.04 | [9] -0.002 | [10] -0.028 | [20] 0.119 | [11] 0 | [12] 0.07 | [13] -0.068 | [14] 0.002 | [15] -0.033 | [16] -0.07 | [17] 0.004 | [18] -0.027

EPB41, A0A2R8Y6D0
inactive: [19] 0.159 | [2] -0.063 | [3] 0.036 | [4] 0.14 | [5] 0.053 | [6] 0.227 | [8] 0.004 | [9] -0.083 | [20] 0.164 | [11] -0.013 | [12] 0.122 | [13] 0.011 | [14] -0.107 | [15] 0 | [16] -0.021 | [17] 0.029 | [18] 0.192

Fetched one by one from the list above (2):
EIF2S3 (UniProt P41091)
inactive: [1] -0.016 | [19] 0 | [3] -0.006 | [4] -0.02 | [5] 0.114 | [6] 0.124 | [7] 0.033 | [8] 0.04 | [9] -0.002 | [10] -0.028 | [20] 0.119 | [11] 0 | [12] 0.07 | [13] -0.068 | [14] 0.002 | [15] -0.033 | [16] -0.07 | [17] 0.004 | [18] -0.027

EHBP1L1 (UniProt Q8N3D4)
inactive: [1] -0.065 | [19] -0.082 | [3] 0.098 | [4] -0.002 | [5] -0.089 | [6] 0.1 | [7] -0.008 | [8] 0.127 | [9] -0.017 | [10] 0.054 | [20] 0.147 | [11] 0.065 | [12] -0.021 | [13] -0.098 | [14] 0.119 | [15] -0.009 | [16] -0.026 | [17] 0.03 | [18] 0.217

Following part

EIF4B (UniProt F8VP89)
inactive: [2] -0.019 | [6] -0.059 | [8] 0.036 | [10] -0.194 | [11] -0.027 | [12] 0.186 | [13] 0.012 | [14] 0.47 | [15] 0.064 | [16] 0.003 | [17] -0.433 | [18] 0.19
